PubChem BioAssay AID646 (Vanderbilt High Throughput Screening Facility, 2007)
The whole screen tested about 1,900 compounds, of which about 15 (0.8%) were called active. No stated cut-off is given here; in the data, active means luminescence above about 3900; inactive means the rest. Shown are results outside the selection of actives, which stands elsewhere.

Sequences of proteins named here, by UniProt entry; tags and fusion partners are left off.
UniProt P21728, whole entry, looked up: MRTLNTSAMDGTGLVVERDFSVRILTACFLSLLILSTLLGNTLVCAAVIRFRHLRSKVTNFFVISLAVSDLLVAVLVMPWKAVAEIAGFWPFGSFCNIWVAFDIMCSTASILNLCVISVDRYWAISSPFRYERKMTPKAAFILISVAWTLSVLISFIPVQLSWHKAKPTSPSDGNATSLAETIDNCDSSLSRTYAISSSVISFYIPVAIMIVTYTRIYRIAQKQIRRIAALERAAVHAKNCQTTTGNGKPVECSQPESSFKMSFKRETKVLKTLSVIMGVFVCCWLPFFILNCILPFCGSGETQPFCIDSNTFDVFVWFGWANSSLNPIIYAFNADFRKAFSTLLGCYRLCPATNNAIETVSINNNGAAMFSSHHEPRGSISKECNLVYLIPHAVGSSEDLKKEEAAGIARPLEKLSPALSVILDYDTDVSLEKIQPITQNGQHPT

Target: D(1A) dopamine receptor (Homo sapiens) (UniProt P21728)
Assay: intrinsic activation of D1 CRE reporter – cell-based, HEK293 D1, CRE-luciferase, secondary assay 1, mechanism study for D1 allosteric modulator project, confirmation (AID 646)
Settings: no dopamine, at 10 µM, hits give high values

Row | Compound | luminescence
1 | CCC(=NCc1ccco1)c1c(O)n(Cc2ccccc2)c(=O)[nH]c1=O | inactive: 1620
